Test results taken from the supplement of paper PMC5949888.
Most values lie at the floor of the assay. Slopes are relative: functional sequences can read slightly below zero.

system: Saccharomyces cerevisiae PS128 hsf1 delta, HSF1(1-493) fusion; test: growth estimate (transactivation domain function in HSF1 fusion, heat-shock survival) (a.u. (slope of normalised read count over time)); higher = stronger growth at 37°C, i.e. more transactivation activity; settings: library: random library
Experimental: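 Random 60-nt DNA library encoding peptides of up to 20 aa, fused to the C-terminus of yeast HSF1 residues 1-493 (C-terminal TAD deleted) and expressed from the native HSF1 promoter on a CEN plasmid in hsf1-deleted S. cerevisiae PS128. Cells were selected at 37°C on -trp 5-FOA plates for 0, 2, 4, 6 and 8 days and amplicons were sequenced. Growth estimate is the slope of a robust linear fit of total-sum-normalised read counts (normalised to the first time point) over time, using at least 2 replicates. Sequences are classed functional (TAD activity) above a threshold of -0.13, set from stop-codon control sequences.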

Substance | growth estimate
AHCIQVRAPGI | < -0.253
YVEKHHNGTCLYMVRFLLTI | < -0.25
ATNGVGPG | < -0.25
SRILYGVNHGRRTDGLETDP | < -0.25
KQSLLDGPRKSLSGMFLKPS | < -0.25
FAVGGDDLQCALSGLTGSLL | < -0.25
VAKRIGRRGNRDGSWVGLRR | < -0.25
LAIFVKEPTLTIRTARLRAG | < -0.25
LHRSFD | < -0.25
RPRCQGP | < -0.25
HQLIHALV | < -0.25
LDFGWIEVKAVP | < -0.25
HAASGPV | < -0.25
VLPDLSNALQIPTSRPS | < -0.25
QEDARSGEVRSGRWMESLLP | < -0.25
QPRSFGSVTWQVGTGGVGGF | < -0.25
QRALIDAQH | < -0.25
DKLLSGSGIQGPVLPG | < -0.25
TGYYPFFSARSTLCEDRLRR | -0.178
AVLLLNKEQGLQSNKLKRGG | < -0.25
ILTKCVQCPLERTRHKPLRA | < -0.25
KHSRIWSPRQASGLGSLGRQ | < -0.25
HGKEWREGETPAEGPR | < -0.25
RSHGLPGLLGLANTEPKAIA | < -0.25
IWLPT | < -0.25
IWMRPEFVLSMWMRNIEVRA | < -0.25

Substance | growth estimate
LENPA | < -0.25
SWHVPV | < -0.25
TAPNCLAACRSWAGGFGMEP | < -0.25
VTMGLRRSADVLHNPVYGAV | < -0.25
APGEIISGDPTSQP | < -0.25
EDLLAHDIRSVKGTRLGSKC | < -0.25
FISPRPARRGGYSPNLELPA | < -0.25
NGEPCHHGAMHLRLSGRGGP | < -0.25
EDAIFVTTLNLTFSGIDPCN | < -0.25
GESTPWFRCQSREC | -0.246
GGERFLCMLLFLERTLLLPS | < -0.25
LCIRKSFQVHVGMTTCSLSR | < -0.25
RKPL | < -0.25
PIPPIRES | < -0.25
EGTNLRNLGRRRLCAVLRRC | < -0.25
NSYGGVRPQSH | < -0.25
LMARQVT | < -0.25
IYSKRLRQVVDTTLTVTSLR | < -0.25
PTGSTYTR | < -0.25
CVEPSGNDR | < -0.25
IATPFAEAHQITRAS | < -0.25
LHRFETHYSAVRSRVSGMAS | < -0.25
TPV | < -0.25
PNPHVKAALIVLLALGHFSR | < -0.25
HKGGRAVSGSRRSHSG | < -0.25
YLLV | < -0.25

Shown in markdown: entries from further up

| Substance | growth estimate |
| --- | --- |
| APGEIISGDPTSQP | < -0.25 |
| EDLLAHDIRSVKGTRLGSKC | < -0.25 |
| LCIRKSFQVHVGMTTCSLSR | < -0.25 |
| RKPL | < -0.25 |
| PNPHVKAALIVLLALGHFSR | < -0.25 |

(listing goes on)

Substance | growth estimate
IPRVRGV | < -0.25
IAGGP | < -0.25
KPLGFMRYQGHDP | < -0.25
STALRGRALNVNLPTVPLGD | < -0.25
GIFLILERIWALDLP | < -0.25
PRAILVPHR | < -0.25
TSCAHLAVHQKSSPLGNSAR | < -0.25
KQWWGRGYAKQGLPGT | < -0.25
SHIQATGSERRKRCIVICTR | < -0.25
GSSRPLTKFATRDPPTQLNR | < -0.25
REPCTEL | < -0.25
TWNRMVCLSTQRGTAC | < -0.25
LLLGRHLKAVLLRRSRRTSV | -0.181
LIWGGPPIALLGRPAGNCLP | < -0.25
HRFGQCALWFVS | < -0.25
LDSPHNVHYV | < -0.25
TRVLLIMYGRGLTDSYDVTH | < -0.25
FESLAYTKVFKSLIVYLIPV | < -0.25
VVIPSLLHVNTTLVCKKYMP | < -0.25
SAVFRLSRDVQSVR | < -0.25
NTDSGWTAALR | < -0.25
YAAAAN | < -0.25
LTRVRVTGGAA | < -0.25
HTIT | < -0.25
EQGETEIDIGIFDKAVVPGE | < -0.25
LRENPLAVSRRIEKTTALMA | < -0.25

Substance | growth estimate
KCNL | < -0.25
CLGPLPAVSRFRVSDAQPGL | < -0.25
SKQCEIWSTTHRSN | < -0.25
GKYD | -0.247
IDDIHHDRRP | < -0.25
WKMLPG | < -0.25
GLHVKYIP | -0.246
LSSRTSSVTPLVRWDGNVLK | < -0.25
IQKAGDTFSRVKGGWMVRPT | < -0.25
HMECDQVLSRSQ | < -0.25
VMRFYRSS | < -0.25
GRDEHGGK | < -0.25
NFGYTNAMLRLVGSSRICGM | < -0.25
WAVRWCADRPILPILARLVF | < -0.25
LEEGPNWNSGLFVL | < -0.25
MARSPAKNRVKVGRPRRIPA | < -0.25
TFCDSTSPCPHAKLPAEQYK | < -0.25
SRGPCSLVIPLTAAAF | < -0.25
KERVHGSVYRGLEAPHSGRA | < -0.25
LRRSKRPVADRRVLCIQYYP | < -0.25
GVVLRADSGIVSF | < -0.25
PVGKDSDPPGAADLRHNGSY | < -0.25
VMAVHGLGAA | < -0.25
IVFTWGFQVCLEARGQTDTD | < -0.25
NRGLGALNTLAYSHMGINRI | < -0.25
ISATVVRKRAGGLAQYYNLP | -0.243

Substance | growth estimate
TNTFKKSSS | -0.248
NRQLVPPNTKRSYRLRCTCF | < -0.25
CGLVTSVI | < -0.25
LYIRDSWRKS | < -0.25
FSRMV | < -0.25
PLTQFSCLNPPSRFRLGGVS | < -0.25
PCASPWLVGVRISIVDHVEH | < -0.25
RLKRKDCKPGTEVVELSTLT | < -0.25
FLLPDRWRYPIIIELY | < -0.25
RFGFVSAGTLVR | < -0.25
GFVFI | < -0.25
RTISSRDLQRYGRNATGNVS | < -0.25
QKITRFSARGLAKAGGRFTT | < -0.25
ASDVLETLPRDHPFLGGLLG | -0.246
GRSCSKAGLKAKLDCGRRDL | < -0.25
FAEITGRGQRMVQ | < -0.25
LMIRYRGDPALLVECKARRA | 0.375
IATVSGMGTAGNAASERYQL | < -0.25
AIHTLTPGKPVAKKMNRKSP | < -0.25
AHLI | < -0.25
HVRFGLASGESKRRAANIFV | < -0.25
TTVRARTTTDYYATVPFAS | < -0.25
VFTRDCPVVWTKTSYLRMAE | < -0.25
DLMQGLPFMNRRAKIVRGNG | < -0.25
THGPTLGWDRC | < -0.25
YSEKTTQDVPSQRFHSASCH | < -0.25

Reformatted: entries from further up.
IWLPT
  growth estimate: < -0.25
TAPNCLAACRSWAGGFGMEP
  growth estimate: < -0.25
TPV
  growth estimate: < -0.25
IATVSGMGTAGNAASERYQL
  growth estimate: < -0.25

More results:

Substance | growth estimate
SPFEHPFVLRGRT | < -0.25
FPVEDPVQTR | < -0.25
AQISRGRSGSSDWTTHASIR | < -0.25
LTRRVSGARGIGARAGRPEG | < -0.25
GSRSTESELESLEHVVSPRP | -0.243
VDFITMLTRVVVSKPTHWML | < -0.25
SPFAASETYN | < -0.25
KPWNAGICYTRYLSVF | < -0.25
RTEFSSACSIRYQR | < -0.25
TAGLNRWGVKILVRFRQE | < -0.25
DLRN | < -0.25
SILYQVQ | < -0.25
CRWLLGRTNGTVHPETC | < -0.25
MGQRCCYFNTGERGGHALT | < -0.25
TNSAT | < -0.25
GRFSGAL | < -0.25
GHMQREDMKNRK | < -0.25
RLGRRPDEPIGSVVG | < -0.25
YARWIGTLAFLALNPATYFR | < -0.25
RCGVC | < -0.25
IQN | < -0.25
